Reference: PubChem BioAssay AID720504 (National Center for Advancing Translational Sciences (NCATS), 2013)
In all, about 360,000 compounds went through this assay and about 10,000 (2.8%) were called active. Inconclusive results, whose numbers are uncertain, are shown with a selection of clear calls. The call rests on the fitted dose curve; in most records, active means well fitted inhibition curve with a large enough effect; inconclusive means small, poorly fitted or top-dose-only effect; inactive means flat fitted curve, though single readings scatter. Where the call is inconclusive, the potency comes from a doubtful curve fit.

Chains of the proteins cited; added tags and fusions are not shown.
UniProt P53350, whole entry, looked up: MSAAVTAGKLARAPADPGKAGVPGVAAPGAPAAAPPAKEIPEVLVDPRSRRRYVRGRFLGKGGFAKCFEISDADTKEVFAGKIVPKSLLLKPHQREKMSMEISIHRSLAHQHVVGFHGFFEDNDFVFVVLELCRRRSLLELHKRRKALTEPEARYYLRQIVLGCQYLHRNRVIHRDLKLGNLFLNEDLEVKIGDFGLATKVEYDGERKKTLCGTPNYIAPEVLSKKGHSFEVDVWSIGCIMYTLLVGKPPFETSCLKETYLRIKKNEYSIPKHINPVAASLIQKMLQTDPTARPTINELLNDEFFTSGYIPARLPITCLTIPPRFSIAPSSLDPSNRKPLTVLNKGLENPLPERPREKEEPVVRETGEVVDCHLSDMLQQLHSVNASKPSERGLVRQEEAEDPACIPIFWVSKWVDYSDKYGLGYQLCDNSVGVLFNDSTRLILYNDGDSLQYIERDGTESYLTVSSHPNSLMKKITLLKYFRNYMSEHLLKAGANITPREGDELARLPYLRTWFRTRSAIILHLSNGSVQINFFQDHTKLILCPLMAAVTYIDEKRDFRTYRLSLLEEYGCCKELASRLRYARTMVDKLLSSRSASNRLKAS

These molecules were tested against Serine/threonine-protein kinase PLK1 (Homo sapiens) (UniProt P53350) (assay: qHTS for Inhibitors of PLK1-PDB (polo-like kinase 1 - polo-box domain): Primary Screen). Details: Plk1 PBD binding of FITC phosphopeptide, fluorescence polarization.
Further: nearly all actives have a fitted effect of over 65% in size.
On the % scale 0 is the no-effect control and ±100 the full control effect; potency means the concentration at half of the fitted maximal effect.
Wherever max response, negative = inhibition is given: series mostly up to about 57 µM.

Structure (SMILES) | Potency | max response, negative = inhibition
COc1ccc(S(=O)(=O)N2CCN(C(=S)NC3CCCCC3)CC2)cc1 | inconclusive: 21.2 µM [inhibitor, partial curve] | –
COc1cc(C)c2c(c1OC)C(=O)CC2 | – | inactive: -6.42%
CCOc1ccc(C(=O)Nc2nnc(NC(=S)Nc3ccccc3)s2)cc1 | inconclusive: 10.6 µM [inhibitor, partial curve] | –
O=C(CNC(=O)c1ccccc1)Oc1ccc([N+](=O)[O-])cc1 | active: 5.32 µM | –
Cc1cc(C(=O)OCC(=O)Nc2c(F)cccc2F)c(C)n1-c1ccccc1 | active: 21.2 µM | –
COc1cc(-c2nnc3sc(-c4ccco4)nn23)cc(OC)c1OC | inconclusive: 29.9 µM [inhibitor, partial curve] | –
CN(C(=O)c1ccc(COc2ccccc2Br)o1)c1ccccc1 | inconclusive: 3.77 µM [inhibitor, full curve] | –
Cc1ccc(CNC(=O)c2cnccn2)cc1 | – | inactive: 2.06%
C[C@H](NC(=O)c1nc[nH]c1C(=O)NCC(=O)OCc1ccccc1)c1ccccc1 | – | inactive: -1.48%
COc1ccccc1NS(=O)(=O)c1cc(NC(=O)c2cc[n+]([O-])cc2)ccc1N1CCCC1 | active: 2.99 µM | –
CCOC(=O)N1CCN(C(=O)C[C@@H]2C[C@@]3(C(=O)OC)CC(C)(C)CC=C3N(Cc3ccco3)C2=O)CC1 | – | inactive: 2.41%
CCC1=C(OC(=O)N(CC)CC)N2C(=O)OC(=NCCc3c[nH]c4ccccc34)[C@]2(Cc2ccccc2)[C@H]2C1=CC[C@H]1C(=O)N(c3ccccc3)C(=O)[C@H]12 | inconclusive: 29.9 µM [inhibitor, partial curve] | –
COc1cc(CCC(=O)OCC(=O)Nc2ccccc2C#N)cc(OC)c1OC | – | inconclusive: -5.69% [inhibitor]
CCOC(=O)CC1=NN(c2ccccc2)C(=O)/C1=C\c1ccc(OC)cc1OC | active: 2.67 µM | –
COc1ccc(OCCOc2ccc(/C=C3\C(=N)N4N=C(C)SC4=NC3=O)cc2)cc1 | inconclusive: 23.8 µM [inhibitor, single point] | –
O=C(CNS(=O)(=O)c1ccc([N+](=O)[O-])cc1)N/N=C\c1ccc(O)cc1 | – | inactive: -0.939%
CCCCOc1ccc(C2(C)NC(=O)NC2=O)cc1 (stereo unspecified) | active: 7.52 µM | –
COc1ccccc1C1C(C(=O)c2cc3ccccc3o2)=C(O)C(=O)N1CCN1CCOCC1 (stereo unspecified) | inconclusive: 23.8 µM [inhibitor, single point] | –
S=c1[nH]nc(-c2n[nH]c3c2CCC3)n1/N=C/C=C/c1ccco1 | inconclusive: 29.9 µM [inhibitor, partial curve] | –
Nc1nc(SCC(=O)NCCOCCO)nc2sc3c(c12)CCCC3 | inconclusive: 26.7 µM [inhibitor, partial curve] | –
CCN(CC(=O)NC1CCS(=O)(=O)C1)S(=O)(=O)c1cc([N+](=O)[O-])ccc1C (stereo unspecified) | inconclusive: 26.7 µM [inhibitor, partial curve] | –
O=C(OCCN1C(=O)c2cccc3c(N4CCOCC4)ccc(c23)C1=O)c1ccc(Cl)cc1Cl | active: 18.9 µM | –
COc1ccc(SC[C@H](Cc2ccccc2)N2CCN(CCc3ccccc3)CCC2=O)cc1 | – | inconclusive: -31.5% [inhibitor]
CN(Cc1nc(-c2cccs2)no1)CC(O)c1ccccc1 (stereo unspecified) | inconclusive: 37.7 µM [inhibitor, single point] | –

An excerpt of these results, as tab-separated lines.
Structure (SMILES)	Potency	max response, negative = inhibition
CCCCOc1ccc(C2(C)NC(=O)NC2=O)cc1 (stereo unspecified)	active: 7.52 µM	–
COc1ccccc1C1C(C(=O)c2cc3ccccc3o2)=C(O)C(=O)N1CCN1CCOCC1 (stereo unspecified)	inconclusive: 23.8 µM [inhibitor, single point]	–
S=c1[nH]nc(-c2n[nH]c3c2CCC3)n1/N=C/C=C/c1ccco1	inconclusive: 29.9 µM [inhibitor, partial curve]	–

The results go on:

Structure (SMILES) | Potency | max response, negative = inhibition
Cc1cccc(-c2nsc(SCC(=O)NCc3ccco3)n2)c1 | active: 21.2 µM | –
O=C(O)C1CCC(NSc2ccccc2[N+](=O)[O-])CC1 (stereo unspecified) | active: 2.38 µM | –
COc1ccccc1-c1cc(C(=O)NCCc2ccccc2)no1 | active: 26.7 µM | –
COc1ccc(CN=C2NN=C(c3ccccc3)CS2)cc1 | inconclusive: 33.6 µM [inhibitor, single point] | –
C=CCn1c(CNc2ccc(C)cc2)nnc1SCC(=O)N/N=C/c1ccc(O)cc1 | inconclusive: 18.9 µM [inhibitor, single point] | –
O=C(O)CCC(=O)Nc1sc2c(c1C(=O)NC1CCCC1)CCCC2 | – | inactive: -17.7%
CCOC(=O)CSc1nnc2c3ccccc3n(C)c2n1 | inconclusive: 4.74 µM [inhibitor, single point] | –
O=C(Nc1cccc(C(=O)O)c1)/C(=C\c1ccc2c(c1)OCO2)NC(=O)c1ccc(Br)o1 | inconclusive: 23.8 µM [inhibitor, single point] | –
CCOc1cc(C2Nc3ccccc3C(=O)N2c2ccccc2)ccc1O (stereo unspecified) | – | inactive: -11.6%
CCc1c(C)sc(NC(=O)c2cnn3cccnc23)c1C#N | inconclusive: 25.1 µM [inhibitor, partial curve] | –
Cc1ccc(-n2ncc3c2CC(C)(C)CC3NC(=O)CCN2CCCO2)cc1 (stereo unspecified) | – | inactive: -5.18%
CCN(CC(=O)NC1CCS(=O)(=O)C1)S(=O)(=O)c1ccccc1Cl (stereo unspecified) | – | inconclusive: -32% [inhibitor]
CCN(CC)S(=O)(=O)c1ccc(C(=O)OCCN2C(=O)c3cccc4c(N5CCOCC5)ccc(c34)C2=O)cc1 | inconclusive: 15 µM [inhibitor, partial curve] | –
CSc1cc(-c2ccccc2)[nH]c(=O)c1C#N | – | inactive: -14.6%
COc1ccc(-n2cccc2/C=C/[N+](=O)[O-])cc1 | active: 26.7 µM | –
C#CC(=O)N(c1cc(OC)ccc1OC)C(C(=O)NC1CCCC1)c1cccs1 (stereo unspecified) | inconclusive: 18.9 µM [inhibitor, partial curve] | –
O=C1C(=NO)CCc2ccccc21 | inconclusive: 26.7 µM [inhibitor, single point] | –
COC(=O)C(Sc1ccc(Cl)cc1)C1SC(=S)N(Cc2ccccc2)C1=O (stereo unspecified) | inconclusive: 0.532 µM [inhibitor, full curve, poor fit] | –
CCN(C(=O)COC(=O)c1ncc(Cl)c(Cl)c1Cl)c1c(N)n(Cc2ccccc2)c(=O)[nH]c1=O | – | inactive: 6.07%
CC(=O)NC1=NN(C(C)=O)C(C)(CC(=O)OC(C)(C)C)S1 (stereo unspecified) | – | inactive: -8.23%
N#Cc1c(-c2cccs2)cc(-c2cccs2)[nH]c1=O | – | inactive: -7.92%
Cc1cc(C(=O)COC(=O)Cc2n[nH]c(=O)c3ccccc23)c(C)n1-c1ccc2c(c1)OCCO2 | – | inactive: 3.33%
Cc1ccc(C(=O)NCCSCc2ccc(Cl)cc2Cl)cc1[N+](=O)[O-] | inconclusive: 23.8 µM [inhibitor, partial curve] | –
COc1ccc(N=C2C(=Nc3ccc(OC)cc3)N(c3ccc(OC)cc3)C(=S)N2c2ccccc2)cc1 | – | inactive: 0.363%

An excerpt from above in order of molecular weight, rising.
Structure (SMILES) | Potency | max response, negative = inhibition
CCOC(=O)CSc1nnc2c3ccccc3n(C)c2n1 | inconclusive: 4.74 µM [inhibitor, single point] | –
CCN(CC(=O)NC1CCS(=O)(=O)C1)S(=O)(=O)c1ccccc1Cl (stereo unspecified) | – | inconclusive: -32% [inhibitor]
O=C(Nc1cccc(C(=O)O)c1)/C(=C\c1ccc2c(c1)OCO2)NC(=O)c1ccc(Br)o1 | inconclusive: 23.8 µM [inhibitor, single point] | –

The results go on:

Structure (SMILES) | Potency | max response, negative = inhibition
O=C(C1CCCN(S(=O)(=O)c2ccc(Cl)cc2)C1)N(Cc1cccs1)C1CC1 (stereo unspecified) | inconclusive: 26.7 µM [inhibitor, partial curve] | –
COc1ccc(NC(=O)CN2CCN(CC(=O)Nc3ccccc3F)CC2)cc1OC | – | inactive: -6.86%
CCOCc1nnc(NC(=O)CSc2ccccc2)s1 | inconclusive: 21.2 µM [inhibitor, partial curve] | –
CCOC(=O)c1c(-c2ccncc2)csc1N | inconclusive: 26.7 µM [inhibitor, partial curve] | –
CC(=O)Nc1cc(-c2ccsc2)cn2c(-c3ccc(F)cc3)cnc12 | inconclusive: 21.2 µM [inhibitor, partial curve] | –
CCN(CC(F)(F)C(F)F)S(=O)(=O)c1ccc(NC(=O)OC)cc1 | active: 3.77 µM | –
CCCCNC(=O)c1sc(=S)n2c1[nH]c(=O)c1ccccc12 | active: 26.7 µM | –
COCCCNC(=O)c1ccc(Cn2c(=O)c3ccccc3n(Cc3ccccc3C#N)c2=O)cc1 | – | inactive: 1.05%
CCCC(=O)Nc1ccc(Cl)c(NC(=O)CC)c1 | active: 26.7 µM | –
CCN1CCCC1CNC(=S)Nc1ccc(C(C)=O)cc1 (stereo unspecified) | inconclusive: 23.8 µM [inhibitor, partial curve] | –
O=C1CC[C@@H](O)CCN1CC[C@H](Sc1ccc(Br)cc1)c1ccccc1 | inconclusive: 8.44 µM [inhibitor, partial curve] | –
O=C(Nc1sc2c(c1C(=O)O)CCCCC2)c1ccco1 | – | inactive: -8.47%
CCCCc1cc(-c2n[nH]c(=S)o2)c2ccccc2n1 | inconclusive: 13.4 µM [inhibitor, partial curve] | –
N#C/C(=C/c1ccc(-c2ccc([N+](=O)[O-])cc2)o1)C(=O)Nc1nc(-c2cccs2)cs1 | – | inconclusive: -30.6% [inhibitor]
O=C(NCCc1ccccc1F)C(=O)Nc1nccs1 | inconclusive: 29.9 µM [inhibitor, partial curve, poor fit] | –
CC(=O)c1cccc(S(=O)(=O)NC(C)C2CC3CCC2C3)c1 (stereo unspecified) | inconclusive: 29.9 µM [inhibitor, partial curve] | –
O=C(c1cc2ncc(Br)cn2n1)N1CCOCC1 | – | inactive: -6.37%
Nc1[nH]c(=S)[nH]c(=O)c1-c1ccccc1 | inconclusive: 26.7 µM [inhibitor, single point] | –
COCCNC(=O)Cn1cc(/C=N/NC(=O)c2ccc(Oc3ccc(O)cc3)cc2)c2ccccc21 | inconclusive: 26.7 µM [inhibitor, single point] | –
O=C(/C=C/c1ccccc1Cl)NC1CCS(=O)(=O)C1 (stereo unspecified) | active: 3.77 µM | –
COc1ccc2oc(C(=O)NCc3ccccc3CN3CCCC3)c(C)c2c1 | – | inactive: -9.71%
CCN(Cc1nc(-c2cccc(Cl)c2)no1)CC1CCCO1 (stereo unspecified) | inconclusive: 23.8 µM [inhibitor, partial curve] | –
O=C(NC1C(=O)NNC1c1ccccc1)c1ccc(F)cc1 (stereo unspecified) | – | inactive: -11.5%
